Test results taken from patent US20140287985A1, “NOVEL USES OF ELAFIN” (Proteo Biotech AG, priority 2010, published 2014).

System: elastase
Test: Release of elastase inhibitory activity from polymerized bone cement in water

## Elafin: Human anti-protease polypeptide of 57 amino acids, about 6 kDa (SEQ ID NO: 1); reversible inhibitor of neutrophil elastase and proteinase 3 (AQEPVKGPVSTKPGSCPIILIRCAMLNPPNRCLKDTDCPGIKKCCEGSCGMACFVPQ; listed as Homo sapiens)
Bone cement in water, within the first three days
  share of the added amount released: about 15%
Bone cement pieces incubated in water
  release of active inhibitor from polymerized cement samples: Active olefin was released
